Some of the results follow.

In this assay the target is T1, OsSMF1 (Oryza sativa, UniProt Q6ZLB0 1-436).
T1 sequence: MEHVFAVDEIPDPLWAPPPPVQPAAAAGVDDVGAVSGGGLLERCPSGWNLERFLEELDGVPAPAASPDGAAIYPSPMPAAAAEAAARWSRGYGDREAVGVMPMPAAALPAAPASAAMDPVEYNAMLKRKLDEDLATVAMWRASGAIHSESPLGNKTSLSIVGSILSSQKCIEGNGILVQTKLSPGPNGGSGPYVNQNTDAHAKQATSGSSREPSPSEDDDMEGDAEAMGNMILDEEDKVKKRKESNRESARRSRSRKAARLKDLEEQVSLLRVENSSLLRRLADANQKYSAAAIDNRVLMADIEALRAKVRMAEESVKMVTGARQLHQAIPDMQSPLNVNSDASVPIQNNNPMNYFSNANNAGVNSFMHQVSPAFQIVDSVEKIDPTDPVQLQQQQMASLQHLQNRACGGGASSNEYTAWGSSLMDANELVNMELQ
Description: protein-binding microarray (RPBM); PBS, 2% BSA, 51.3 ng/ul salmon testes DNA, 50 uM zinc acetate, 200 nM TF, 25 C, 1 h; high values mean tight binding. The note with it: protein: recombinant; tags: N-terminal polyhistidine and DsRed monomer fusion (pET32a); chain copies: 2; label: CyDye5-dUTP incorporated in the synthesized complementary strand; 3' TTTTT single-stranded linker to array surface; dsDNA, one strand shown. Summed up: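 The binding signal for each feature is its fluorescence intensity in arbitrary units. An Axon 4000B scanner was used to read a custom Agilent array that had been made double-stranded with Cy5-dUTP primer extension, blocked with 2% BSA, incubated at 25 °C for 1 h with 200 nM protein in PBS, 2% BSA, salmon testes DNA and 50 µM zinc acetate, and washed. The protein was an N-terminal polyhistidine–DsRed transcription factor fusion from E. coli BL21-CodonPlus, purified on Ni–NTA.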
As to “GTCGGTCGATAGCGAACTGACGTTGGCTCGATTCGCCATTCGGAGTCACCTAGTGCAG”, the binding signal is 3260 fluorescence intensity (a.u.).

“TGATTGCTGGCACAAGCCACCGCGTCATGGTTGCTTGGTGCGGAGTCACCTAGTGCAG”: the binding signal was 3150 fluorescence intensity (a.u.).

Turning to “AATAGGGGAAAGCCATAAAGTGTATGTGTAACCACCACCTCGGAGTCACCTAGTGCAG”, the binding signal was 3150 fluorescence intensity (a.u.).

In the case of “TCCGATTTTATCCTACGTGACGGCTGAGTCAGCGTAGGACCGGAGTCACCTAGTGCAG”, the binding signal was 9600 fluorescence intensity (a.u.).

Consider “GGGCCTCCCCTCCTCCCTTCGCTGGCGAGAGGACGGAGACCGGAGTCACCTAGTGCAG”, for which the binding signal is 3400 fluorescence intensity (a.u.).

As to “TGTCCGACGTGATGGCTGAGTCAGCGTGGGACCCACGTGGCGGAGTCACCTAGTGCAG”, the binding signal was 22600 fluorescence intensity (a.u.).

In the case of “AAAACAGCTTCATCTTTGCCACCGAGCCCCACCACGTCATCGGAGTCACCTAGTGCAG”, the binding signal was 13700 fluorescence intensity (a.u.).

“GTTGAAACTCTACCCACAAGGGCTATATCCACGTCAGTCACGGAGTCACCTAGTGCAG”: the binding signal was 15100 fluorescence intensity (a.u.).

Take “CCGGTGCGGGTGCCCACACGTCATGGAGAGGGCGAGGCAGCGGAGTCACCTAGTGCAG”: the binding signal is 3880 fluorescence intensity (a.u.).

As for “GCAAAGCACCAGCCCAGCCAGCGCGGCGCCAAACTCCACCCGGAGTCACCTAGTGCAG”, the binding signal was 3470 fluorescence intensity (a.u.).

“TATATGAGAAATACTTTGAAGTAAGTTATCGTGTCATGGACGGAGTCACCTAGTGCAG”: the binding signal was 3360 fluorescence intensity (a.u.).

As for “GTTCTTACAGTTGCATTCAGCTATGCTGACATGGAAGATTCGGAGTCACCTAGTGCAG”, the binding signal was 7390 fluorescence intensity (a.u.).

For the sequence “AGTCTCATGACTGCTGCTATCTGAATCATCACCACGAGCTCGGAGTCACCTAGTGCAG”, the binding signal is 4730 fluorescence intensity (a.u.).

For the sequence “GAAGCAGCAGTAGAGAGAGAGAGAGAACAAGTAAACTCTCCGGAGTCACCTAGTGCAG”, the binding signal was 3160 fluorescence intensity (a.u.).

On to “GGTCGACACATCGATTGCATGCCGTTTGTACATCTTGGCACGGAGTCACCTAGTGCAG”, for which the binding signal was 4500 fluorescence intensity (a.u.).

With “ATAACCGCCCTAATTTACTTTAGCATACGTGGAGTACAAGCGGAGTCACCTAGTGCAG”, the binding signal is 6900 fluorescence intensity (a.u.).

As to “CGTCTACGTACGTCGCTGCCACGGTACAGGGAATCTGAGTCGGAGTCACCTAGTGCAG”, the binding signal is 3500 fluorescence intensity (a.u.).

As to “CTTAATGCGGCGTGACGCGCTCGTCAATCCGCTATAAGTGCGGAGTCACCTAGTGCAG”, the binding signal is 3240 fluorescence intensity (a.u.).

Consider “GGTTCTCTTAAATGGACTGCACGTGTAAATGAGCTTATTTCGGAGTCACCTAGTGCAG”, for which the binding signal is 3300 fluorescence intensity (a.u.).

On to “ACGTAGCGGCTGAGTTAGCGTGGGACCCACGTGGGCCCCACGGAGTCACCTAGTGCAG”, for which the binding signal is 5500 fluorescence intensity (a.u.).

“AGCCTGCTATTGTACACACTCTAAGAGAACTAAAAGTAAACGGAGTCACCTAGTGCAG”: the binding signal is 14300 fluorescence intensity (a.u.).

For the sequence “TGGAGGTAAATGAGAGAAACACCAGGAATCGCGTCATACGCGGAGTCACCTAGTGCAG”, the binding signal is 26700 fluorescence intensity (a.u.).

“GATAGAGTATATTTTGCCAGGTCACATCGAGATCGGAGTCCGGAGTCACCTAGTGCAG”: the binding signal was 8380 fluorescence intensity (a.u.).

Consider “CCCTGGTCGCGCTCCACCTCGGCGTCGTCCGTGGCGGTCGCGGAGTCACCTAGTGCAG”, for which the binding signal is 4330 fluorescence intensity (a.u.).

As for “GGGGCCCTCCGGCCTCCGCTGCCACGTGAGGTGCGCCCAACGGAGTCACCTAGTGCAG”, the binding signal was 5340 fluorescence intensity (a.u.).

As to “CTGCAAAGCCAGCTGGTTCCATCTTCTCGTACAGCTCCCCCGGAGTCACCTAGTGCAG”, the binding signal was 3320 fluorescence intensity (a.u.).

As for “GTATCCCTCCATATTCGGCTACGTCATAGAGCTACAGACCCGGAGTCACCTAGTGCAG”, the binding signal is 3740 fluorescence intensity (a.u.).

In the case of “CCTCTCGCAACTAACCACGCCACGTATGCCGGGTCGCACCCGGAGTCACCTAGTGCAG”, the binding signal is 17900 fluorescence intensity (a.u.).

“CCTACCTGTCATACATATATTACGTCTTGTAGTCTATGCTCGGAGTCACCTAGTGCAG”: the binding signal was 3290 fluorescence intensity (a.u.).

“CATTGTGTGAAATTATTGTAATTGTAGAATAAGAGAATCACGGAGTCACCTAGTGCAG”: the binding signal is 17400 fluorescence intensity (a.u.).

On to “AAATAAAACCGTTTGTTTATAACACAACGGTAGCAAATGACGGAGTCACCTAGTGCAG”, for which the binding signal was 3140 fluorescence intensity (a.u.).

For “TCTCCGCCGCCGCCGCCACCGTCACCCTCCTCGGCCTCCCCGGAGTCACCTAGTGCAG”, the binding signal was 6040 fluorescence intensity (a.u.).

For the sequence “ACAAGTGAAAATTCTCCACGTTGGATCCAACCTAGTAAGCCGGAGTCACCTAGTGCAG”, the binding signal was 5260 fluorescence intensity (a.u.).

As for “GGCGGCGCCGGCGCTCGTCCTGCCGCCACCGCCGCGGCCGCGGAGTCACCTAGTGCAG”, the binding signal is 3190 fluorescence intensity (a.u.).

Consider “CATTTCTTCTGAGTATTCAATGTTTCGTCCCCACGAAAATCGGAGTCACCTAGTGCAG”, for which the binding signal is 33000 fluorescence intensity (a.u.).

Take “CGTTCCTGCCTGAACGCACGCAAGGTGCTCGACGAAATGCCGGAGTCACCTAGTGCAG”: the binding signal was 3510 fluorescence intensity (a.u.).

In the case of “CGAAATGGGAGGCGGGGTTTAGGGTTTCCGGCGGGGAGGGCGGAGTCACCTAGTGCAG”, the binding signal was 5780 fluorescence intensity (a.u.).

Consider “ACCATGTAGGCTATGACACAATGTATATTTGCTTTAGTTTCGGAGTCACCTAGTGCAG”, for which the binding signal is 3730 fluorescence intensity (a.u.).

As to “TAATCGATTTATTGATGTGAAAATTTTGCTTTGTCATGTCCGGAGTCACCTAGTGCAG”, the binding signal was 3410 fluorescence intensity (a.u.).

With “ACATCAATCTTGAAAATCACGATGAACATGACGTGGATTTCGGAGTCACCTAGTGCAG”, the binding signal was 10900 fluorescence intensity (a.u.).

As to “CCCTCGTGGTCACCGCGCGATCACCCTTAAGTGGGTGTTCCGGAGTCACCTAGTGCAG”, the binding signal is 3280 fluorescence intensity (a.u.).

Regarding “GCCTCCTATAAAGCCCGCCACCTCGGTGTGCTTTGGGTGTCGGAGTCACCTAGTGCAG”, the binding signal was 3590 fluorescence intensity (a.u.).

For the origin of these results see paper PMC7819943, “Rice protein-binding microarrays: a tool to detect cis-acting elements near promoter regions in rice”.
